Results are given in words; binding and its absence hold for the method and conditions named. Some results given as binding are weak or reduced against the parent protein; the word gives no strength.
T1: human GPR158 receptor (on HeLa cells highly expressing a GPR158 receptor) (human) (UniProt Q5T848)
T1 sequence (looked up): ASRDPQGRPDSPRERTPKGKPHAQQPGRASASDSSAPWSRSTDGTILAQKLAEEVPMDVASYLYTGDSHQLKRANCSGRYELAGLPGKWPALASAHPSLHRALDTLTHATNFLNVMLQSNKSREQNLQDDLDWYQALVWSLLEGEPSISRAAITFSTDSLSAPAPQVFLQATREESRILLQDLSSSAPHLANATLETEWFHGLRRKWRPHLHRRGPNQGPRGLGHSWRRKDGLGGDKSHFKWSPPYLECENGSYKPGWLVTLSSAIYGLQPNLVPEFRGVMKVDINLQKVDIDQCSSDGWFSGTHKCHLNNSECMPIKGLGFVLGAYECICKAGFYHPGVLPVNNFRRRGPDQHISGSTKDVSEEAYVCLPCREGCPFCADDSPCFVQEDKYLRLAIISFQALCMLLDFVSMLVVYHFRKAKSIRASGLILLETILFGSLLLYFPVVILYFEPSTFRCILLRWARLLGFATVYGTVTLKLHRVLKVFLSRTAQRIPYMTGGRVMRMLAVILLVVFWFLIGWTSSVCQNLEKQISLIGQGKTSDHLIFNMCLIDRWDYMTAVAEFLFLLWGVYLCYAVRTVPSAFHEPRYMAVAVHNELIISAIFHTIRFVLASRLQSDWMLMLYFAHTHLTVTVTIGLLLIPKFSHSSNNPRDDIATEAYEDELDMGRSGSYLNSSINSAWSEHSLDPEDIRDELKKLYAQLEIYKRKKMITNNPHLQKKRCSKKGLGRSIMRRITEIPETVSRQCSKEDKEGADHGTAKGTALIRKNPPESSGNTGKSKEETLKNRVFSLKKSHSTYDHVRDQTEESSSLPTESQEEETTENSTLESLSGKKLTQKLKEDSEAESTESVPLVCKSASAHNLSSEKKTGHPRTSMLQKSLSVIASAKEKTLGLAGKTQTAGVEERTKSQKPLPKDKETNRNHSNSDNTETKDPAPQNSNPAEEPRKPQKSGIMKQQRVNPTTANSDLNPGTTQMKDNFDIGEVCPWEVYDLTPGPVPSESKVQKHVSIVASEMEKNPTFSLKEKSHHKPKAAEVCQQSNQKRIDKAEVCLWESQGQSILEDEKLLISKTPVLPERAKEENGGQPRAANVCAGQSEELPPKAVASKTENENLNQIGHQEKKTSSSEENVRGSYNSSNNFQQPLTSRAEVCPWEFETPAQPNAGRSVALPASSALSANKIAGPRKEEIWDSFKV


Molecular target: T1, human GPR158 receptor (on HeLa cells highly expressing a GPR158 receptor) (human)
Test: binding rate to HeLa cells highly expressing GPR158, in vitro culture with the polypeptide

| Binder | binding |
| --- | --- |
| AGAVTAADLSLTQLESL [Bony fish species-polypeptide (osteocalcin-derived peptide derived from a Wuchang fish)] | binds |
| YAQDSGVAGAPPNPLEAQ [Poultry species-polypeptide (osteocalcin-derived peptide derived from a chicken)] | binds |
| SDFYERYFMHYKTPMEQM [Bird species-polypeptide (osteocalcin-derived peptide derived from a mandarin duck)] | binds |
| YLGASVPSPDPLEPT [osteocalcin-derived peptide derived from a mouse (mO15)] | binds |
| LDPGLGAPAPYPDPLEPR [Livestock species-polypeptide (osteocalcin-derived peptide derived from a sheep)] | binds |
| NYNRFYNARAAPTPDPLEPL [osteocalcin-derived peptide of SEQ ID NO.4] | binds |
| SNLRNAVFGTPVRDPLESK [osteocalcin-derived peptide of SEQ ID NO.5] | binds |

Reference: patent US20260167692A1, “POLYPEPTIDES AND RELATED SUBSTANCES AGAINST HAIR LOSS AND DERMATITIS, AND USES THEREOF” (SHENZHEN INSTITUTES OF ADVANCED TECHNOLOGY, priority 2023, published 2026)
